Test results reported in patent US20170274068A1, “IMMUNOLOGICAL REAGENT” (priority 2014, published 2017).
Part of at least one peptide drawing is inferred or uncertain, most often the ends.

Columns and labels:
[1] = Dynamic light scattering analysis of vaccine formulations; type: physicochemical
Procedure: FIG. 3. Particle size distribution of antigen and lipopeptide formulations. OVA (25 μg) was mixed with each lipopeptide at a 1:3 molar ratio of protein to lipopeptide in […] of PBS in a 96-well plate at room temperature. The size distribution of particulates in samples were then analysed by dynamic light scattering with each profile depicting the hydrodynamic radius (nm) of particles detected versus the percentage intensity of scattered light (% intensity).
To determine the size of complexes formed between OVA and each lipopeptide, we analysed these formulations by dynamic light scattering.

[2] = test system: OVA257 specific cytokine secreting CD8+ T cells; test: Primary CD8+ T cell responses in spleen by intracellular cytokine staining after vaccination; type: in vivo, C57BL/6 mice; settings: 12.5-25 μg OVA formulated with lipopeptide 1:3, s.c., spleen day 10
CD8+CD45.1+ OT-I cells = test: In vivo proliferative T cell responses, adoptive transfer of CFSE labelled OT-I cells; parameters: species or system C57BL/6 mice; settings: 3 μg OVA with lipopeptide, both inguinal LNs, day 3

CCCCCCCCCCCCCCCC(=O)OCC(CSCC(N)C(=O)N[C@@H](CO)C(=O)N[C@@H](CO)C(=O)NCCCC[C@H](NC(=O)[C@H](CCCCNC(=O)[C@H](CCCCNC(=O)[C@@H](N)CCCNC(=N)N)NC(=O)[C@@H](N)CCCNC(=N)N)NC(=O)[C@H](CCCCNC(=O)[C@@H](N)CCCNC(=N)N)NC(=O)[C@@H](N)CCCNC(=N)N)C(N)=O)OC(=O)CCCCCCCCCCCCCCC (stereo partly shown) [R4Pam2Cys]
Hydrodynamic diameter (nm) ([1]; DLS at 25° C in PBS, mixtures: OVA 25 μg, 1:3 molar ratio protein to lipopeptide): 149.2 ± 20.3 nm | % Pd (polydispersity) ([1]; DLS at 25° C, <20% is considered monodispersed): 42.3 ± 17.8% | number of cytokine-producing CD8+ T cells (IFN-γ, TNF-α) [2]: significant increases | fold increase in T cell frequencies (absolute cell numbers in the nodes) compared to OVA alone (CD8+CD45.1+ OT-I cells): ~2 fold
